Reference: PubChem BioAssay AID504744 (Drosophila RNAi Screening Center, 2011)

Aim: 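Identify dsRNAs that increase or decrease phospho-dAkt after insulin treatment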 (primary screen)
System: Drosophila Kc167 cells
Knock-down reagent: long dsRNA against Drosophila genes, 250 ng dsRNA per well of a 384-well plate
Time to read-out: 3 days of knock-down, then overnight serum-free starvation before stimulation
Conditions: bovine insulin at 387 nM for 10 minutes after 12 h without serum
Measured: 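In-cell antibody fluorescence for phospho-dAkt in each well over DNA-dye signal, with log2 residuals expressed as z-scores adjusted for cell count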
Call rule: 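Under insulin, a gene counts as a hit if the average z-score of two replicates lies above 2.5 or below -2.5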
The screen tested about 23,000 reagents; shown is a random part of those with a known target gene and a result. Of all reagents, 98 (0.43%) got an active call. 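Only hit calls are given; the phospho-dAkt signals, z-scores and hit direction were not deposited.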 A plus sign joins genes that one reagent is predicted to hit. Reagent sequences are not shown.

Depletion of CG1504 [DRSC20513] came out at: inactive. After knock-down of Dronc [DRSC11231], the screen gave inactive. Knock-down of Ubqn [DRSC19581] resulted in: inactive. mi [DRSC04498] gave inactive. Depletion of ph-d [DRSC18819] resulted in: inactive. Against CG30075 [DRSC05484], the entry reads inactive.

For CG30076 [DRSC05494] the deposit lists inactive. Against vlc [DRSC04922], the values are inactive. For CG11398 [DRSC18625], the entry reads inactive. With knock-down of Sin3A [DRSC07552], the screen gave inactive. After knock-down of smash [DRSC12139] the results were inactive. smash [DRSC12239] gave inactive.

Knock-down of Prp3 [DRSC10912] gave: inactive. Nop60B [DRSC04627] showed inactive. CG11768 [DRSC14377] gave inactive. CG14333 (retired record) [DRSC14812] gave inactive. Silencing of CG14333 (retired record) [DRSC15769] gave: inactive. Against sub [DRSC06125], the values are inactive.

CG30430 [DRSC22260] showed inactive. For Adh + Adhr [DRSC01862] the deposit lists inactive. Depletion of Adh + Adhr [DRSC01863] gave: inactive. CG42527 (retired record) + Hr4 [DRSC18495] gave inactive. With knock-down of CG42527 (retired record) + Hr4 [DRSC22269], the record shows inactive. Against CG42527 (retired record) + Hr4 [DRSC22677] the deposit lists inactive.

For uno [DRSC07244], the entry reads inactive. Crys [DRSC03294] showed inactive. With knock-down of spz4 [DRSC02410], the record shows inactive. For CG9135 [DRSC03144], the values are inactive. Knock-down of CG4393 [DRSC15573] resulted in: inactive. After knock-down of Ranbp21 [DRSC19447], the screen gave inactive.

Part of the list above, set out differently.
target gene	dsRNA	Outcome
Prp3	DRSC10912	inactive
Nop60B	DRSC04627	inactive
CG11768	DRSC14377	inactive

Additional entries follow.
CG9752 [DRSC04562] showed inactive. fus [DRSC05569] scored inactive. Silencing of fus [DRSC07107] gave: inactive. With knock-down of CG17806 [DRSC15276], the record shows inactive. Depletion of RpS9 [DRSC11273] came out at: inactive. Silencing of GluRIA [DRSC11176] resulted in: inactive.

With knock-down of CR18275 + CG13373 [DRSC17900], the screen gave inactive. TAF1B [DRSC16001] gave inactive. With knock-down of Cubn [DRSC18256], the record shows inactive. Against mRpL18 [DRSC06142] the deposit lists inactive. CG1801 [DRSC20556] showed inactive. GMF [DRSC01928] gave inactive.

CG31743 + CG34313 [DRSC02781] gave inactive. CG31743 + CG34313 [DRSC02782] gave inactive. Silencing of CG6429 [DRSC06986] came out at: inactive. Against CG2082 [DRSC12125] the deposit lists inactive. Silencing of beat-VII [DRSC13780] gave: inactive. beat-VII [DRSC14743] showed inactive.

beat-VII [DRSC14744] showed inactive. beat-VII [DRSC22825] showed inactive. With knock-down of Ir51a [DRSC06256], the screen gave inactive. Against Notum [DRSC09959], the entry reads active. Knock-down of CG8476 [DRSC16426] came out at: inactive. Knock-down of CG13309 [DRSC09980] came out at: inactive.

After knock-down of CG30065 [DRSC05420], the screen gave inactive. Alg10 [DRSC10892] scored inactive. snu [DRSC16589] scored inactive.
